PubChem BioAssay AID602196 | INSERM, 2012
In all, the deposit lists about 23,000 reagents; below is an unselected part. Of all reagents, 455 (2%) were called active. 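Active includes both protection and sensitisation; some change values fall well beyond the stated -50 to +50 range.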 A number with no mark means an inactive call. The numbers tell different reagents against one gene apart. Not stated in the record: the amount of reagent.

Screen: 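Modifiers of cisplatin sensitivity in A549 cells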
System: human A549 lung cancer cells
Reagents: siRNA pair against human genes
Timing: 48 h transfection before cisplatin; time from cisplatin to read-out not stated
Treatment: cisplatin at a dose killing half of control-siRNA cells; exact dose and duration not given
Measurement: 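Cisplatin cell death as a shift from the 50% death seen with control siRNA; siRNAs toxic or growth-blocking alone scored 0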
Reading the numbers: two-siRNA summed score (-2 to +2): higher = both siRNAs protect from cisplatin killing; -2 means both sensitise; mean protection from cisplatin (shift in death) and protection from cisplatin (shift in death), siRNA C and protection from cisplatin (shift in death), siRNA D: higher = protection from cisplatin killing
Call rule: 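siRNAs harmful alone (LDH or WST-1) get 0; others get +1 for less and -1 for more cisplatin killing; genes are active when the two siRNAs give the same sign, summing to ±2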
Calls: active = both siRNAs shift cisplatin killing the same way; inactive = no consistent shift, or siRNA harmful alone

gene symbol	reagent	two-siRNA summed score (-2 to +2)	mean protection from cisplatin (shift in death) (%)	protection from cisplatin (shift in death), siRNA C (%)	protection from cisplatin (shift in death), siRNA D (%)
NDUFA11 (NADH:ubiquinone oxidoreductase subunit A11)	1	0	7.5	11.1	3.9
LOC391003	1	1	12.4	16.1	8.7
GORAB (golgin, RAB6 interacting)	1	0	3.2	1.7	4.7
UBXN6 (UBX domain protein 6)	1	-1	-9.9	4.8	-24.5
RBM33 (RNA binding motif protein 33)	1	0	-1.9	1.9	-5.7
RBM33 (RNA binding motif protein 33)	2	0	6.3	9.9	2.7
CYP7A1 (cytochrome P450 family 7 subfamily A member 1)	1	1	14.5	24.6	4.3
PDGFC (platelet derived growth factor C)	1	0	6.1	-2.5	14.8
PHF1 (PHD finger protein 1)	1	-1	-13.3	-37.7	11.1
SPIRE2 (spire type actin nucleation factor 2)	1	0	12.1	13.2	11.1
LRRC18 (leucine rich repeat containing 18)	1	1	9.1	15.1	3.1
SCG5 (secretogranin V)	1	1	4.4	-8.5	17.3
ADGRE2 (adhesion G protein-coupled receptor E2)	1	-1	-8.7	-3.7	-13.7
LOC401072	1	1	10.4	2.9	17.8
MIR1915HG (MIR1915 host gene)	1	0	13	16	9.9
ZFHX2 (zinc finger homeobox 2)	1	0	-8	-20.3	4.3
ZFHX2 (zinc finger homeobox 2)	2	0	10.7	9	12.5
NEK6 (NIMA related kinase 6)	1	1	0.2	7.5	-7.2

Reformatted: 4 of the entries above.
NDUFA11 (NADH:ubiquinone oxidoreductase subunit A11) | two-siRNA summed score (-2 to +2): 0; mean protection from cisplatin (shift in death) (%): 7.5; protection from cisplatin (shift in death), siRNA C (%): 11.1; protection from cisplatin (shift in death), siRNA D (%): 3.9
LOC391003 | two-siRNA summed score (-2 to +2): 1; mean protection from cisplatin (shift in death) (%): 12.4; protection from cisplatin (shift in death), siRNA C (%): 16.1; protection from cisplatin (shift in death), siRNA D (%): 8.7
GORAB (golgin, RAB6 interacting) | two-siRNA summed score (-2 to +2): 0; mean protection from cisplatin (shift in death) (%): 3.2; protection from cisplatin (shift in death), siRNA C (%): 1.7; protection from cisplatin (shift in death), siRNA D (%): 4.7
UBXN6 (UBX domain protein 6) | two-siRNA summed score (-2 to +2): -1; mean protection from cisplatin (shift in death) (%): -9.9; protection from cisplatin (shift in death), siRNA C (%): 4.8; protection from cisplatin (shift in death), siRNA D (%): -24.5

More reagents follow:
gene symbol	reagent	two-siRNA summed score (-2 to +2)	mean protection from cisplatin (shift in death) (%)	protection from cisplatin (shift in death), siRNA C (%)	protection from cisplatin (shift in death), siRNA D (%)
ZKSCAN4 (zinc finger with KRAB and SCAN domains 4)	1	0	16.8	19.4	14.3
FLJ37307	1	0	8.3	3.2	13.5
SACS (sacsin molecular chaperone)	1	0	-12.2	-12.5	-11.9
C19orf44 (chromosome 19 open reading frame 44)	1	0	6.9	6.8	7
PRKY (protein kinase Y-linked (pseudogene))	1	0	3.9	-2.3	10.2
KIF2B (kinesin family member 2B)	1	1	9.1	22.8	-4.6
CD2 (CD2 molecule)	1	-1	-21.8	-14.4	-29.2
RNF126 (ring finger protein 126)	1	0	15.1	8.6	21.5
ZDHHC18 (zDHHC palmitoyltransferase 18)	1	0	0.8	8	-6.4
AKAP1 (A-kinase anchoring protein 1)	1	0	-6.1	-4.3	-7.9
MYL4 (myosin light chain 4)	1	0	13.3	2.2	24.4
LOC388922	1	0	7.9	6.6	9.2
LOC440236	1	2 (active)	17.9	16.3	19.4
MED30 (mediator complex subunit 30)	1	0	9.5	28.6	-9.7
TMEM59L (transmembrane protein 59 like)	1	0	-0.5	-5.7	4.7
TEPSIN (TEPSIN adaptor related protein complex 4 accessory protein)	1	0	1.3	1.6	0.9
LOC401285	1	0	2.7	-3.9	9.2
QSOX2 (quiescin sulfhydryl oxidase 2)	1	0	18.4	15.5	21.4
SBSPON (somatomedin B and thrombospondin type 1 domain containing)	1	0	7.7	12.5	2.9
UNC5D (unc-5 netrin receptor D)	1	-1	3.9	17.4	-9.5
LOC391030	1	0	10.9	26.7	-4.9
